Laboratory results: the supplement of paper PMC10849652
The list shows a part of the results.

The chains behind the UniProt entries cited, without tags or fusion partners. Where a name states a change or a piece, a line headed by the entry shows the natural chain unless it says otherwise.
UniProt P24666: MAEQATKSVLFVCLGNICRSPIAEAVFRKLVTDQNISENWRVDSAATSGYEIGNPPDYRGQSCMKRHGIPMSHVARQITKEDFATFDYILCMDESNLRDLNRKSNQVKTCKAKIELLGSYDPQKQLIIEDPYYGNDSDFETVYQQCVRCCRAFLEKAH
UniProt O95573: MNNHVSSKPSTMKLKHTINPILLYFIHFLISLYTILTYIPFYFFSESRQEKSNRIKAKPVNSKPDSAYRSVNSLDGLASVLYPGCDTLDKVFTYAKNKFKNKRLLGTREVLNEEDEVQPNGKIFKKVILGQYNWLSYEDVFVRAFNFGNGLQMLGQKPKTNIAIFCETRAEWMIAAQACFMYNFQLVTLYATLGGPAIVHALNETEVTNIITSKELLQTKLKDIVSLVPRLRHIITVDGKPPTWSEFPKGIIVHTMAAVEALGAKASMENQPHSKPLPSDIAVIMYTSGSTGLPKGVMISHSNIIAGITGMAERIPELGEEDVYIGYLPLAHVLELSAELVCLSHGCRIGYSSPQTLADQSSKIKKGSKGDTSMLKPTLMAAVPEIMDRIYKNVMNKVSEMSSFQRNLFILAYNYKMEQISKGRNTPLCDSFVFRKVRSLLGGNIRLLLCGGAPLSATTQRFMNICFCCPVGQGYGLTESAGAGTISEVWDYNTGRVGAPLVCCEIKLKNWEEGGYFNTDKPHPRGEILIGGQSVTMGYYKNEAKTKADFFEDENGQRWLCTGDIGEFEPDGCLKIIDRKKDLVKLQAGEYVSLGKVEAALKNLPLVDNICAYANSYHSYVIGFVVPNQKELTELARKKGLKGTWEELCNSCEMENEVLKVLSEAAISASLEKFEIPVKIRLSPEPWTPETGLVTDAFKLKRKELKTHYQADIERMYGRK
UniProt Q96BJ3: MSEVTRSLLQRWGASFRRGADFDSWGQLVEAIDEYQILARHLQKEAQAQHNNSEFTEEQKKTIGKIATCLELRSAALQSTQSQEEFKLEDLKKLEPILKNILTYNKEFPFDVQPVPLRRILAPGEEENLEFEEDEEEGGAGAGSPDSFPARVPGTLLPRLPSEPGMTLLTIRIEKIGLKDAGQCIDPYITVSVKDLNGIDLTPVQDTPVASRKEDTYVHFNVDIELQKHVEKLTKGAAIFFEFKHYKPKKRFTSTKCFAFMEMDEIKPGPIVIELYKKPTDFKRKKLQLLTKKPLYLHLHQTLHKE
UniProt Q13155: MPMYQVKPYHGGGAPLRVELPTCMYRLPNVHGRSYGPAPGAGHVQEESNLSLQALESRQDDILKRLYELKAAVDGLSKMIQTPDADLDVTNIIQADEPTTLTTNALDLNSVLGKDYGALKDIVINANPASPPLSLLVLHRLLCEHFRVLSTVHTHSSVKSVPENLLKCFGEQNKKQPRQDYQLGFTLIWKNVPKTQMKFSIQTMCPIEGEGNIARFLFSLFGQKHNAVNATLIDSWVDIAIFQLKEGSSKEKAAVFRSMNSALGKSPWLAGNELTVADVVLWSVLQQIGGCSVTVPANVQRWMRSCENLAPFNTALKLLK
UniProt Q6RW13: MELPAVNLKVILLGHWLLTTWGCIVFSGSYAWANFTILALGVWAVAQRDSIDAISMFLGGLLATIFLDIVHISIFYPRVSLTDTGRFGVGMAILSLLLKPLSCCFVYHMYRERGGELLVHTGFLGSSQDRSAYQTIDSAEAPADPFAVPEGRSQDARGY
UniProt P54922: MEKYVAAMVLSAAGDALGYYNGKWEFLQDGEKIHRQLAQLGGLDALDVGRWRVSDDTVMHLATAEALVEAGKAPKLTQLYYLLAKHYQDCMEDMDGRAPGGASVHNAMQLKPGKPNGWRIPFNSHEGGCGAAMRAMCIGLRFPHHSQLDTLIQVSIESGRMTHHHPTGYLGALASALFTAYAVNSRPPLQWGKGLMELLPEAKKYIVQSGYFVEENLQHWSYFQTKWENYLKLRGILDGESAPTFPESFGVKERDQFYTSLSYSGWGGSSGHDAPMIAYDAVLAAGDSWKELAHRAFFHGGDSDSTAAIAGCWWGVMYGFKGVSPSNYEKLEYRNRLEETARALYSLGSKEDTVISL
UniProt P11766: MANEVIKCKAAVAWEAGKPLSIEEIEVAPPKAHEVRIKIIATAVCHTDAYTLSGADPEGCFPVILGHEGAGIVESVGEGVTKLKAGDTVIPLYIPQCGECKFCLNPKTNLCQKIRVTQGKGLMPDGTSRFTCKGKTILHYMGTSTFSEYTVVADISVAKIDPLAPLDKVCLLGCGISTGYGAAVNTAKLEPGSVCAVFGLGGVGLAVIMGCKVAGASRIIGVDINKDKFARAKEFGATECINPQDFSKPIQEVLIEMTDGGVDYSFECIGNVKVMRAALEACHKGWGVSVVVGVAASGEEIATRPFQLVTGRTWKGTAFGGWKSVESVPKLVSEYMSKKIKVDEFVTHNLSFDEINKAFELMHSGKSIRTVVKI
UniProt O43488: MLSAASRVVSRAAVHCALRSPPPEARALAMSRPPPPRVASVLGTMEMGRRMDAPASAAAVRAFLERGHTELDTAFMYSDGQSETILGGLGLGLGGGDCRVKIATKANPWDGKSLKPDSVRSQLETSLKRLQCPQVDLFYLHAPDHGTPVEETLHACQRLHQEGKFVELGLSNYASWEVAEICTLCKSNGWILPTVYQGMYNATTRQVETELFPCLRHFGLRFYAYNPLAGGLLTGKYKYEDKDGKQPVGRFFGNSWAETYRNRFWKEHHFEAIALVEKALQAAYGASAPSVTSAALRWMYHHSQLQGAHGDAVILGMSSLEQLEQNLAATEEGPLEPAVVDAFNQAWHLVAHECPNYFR
UniProt Q16186: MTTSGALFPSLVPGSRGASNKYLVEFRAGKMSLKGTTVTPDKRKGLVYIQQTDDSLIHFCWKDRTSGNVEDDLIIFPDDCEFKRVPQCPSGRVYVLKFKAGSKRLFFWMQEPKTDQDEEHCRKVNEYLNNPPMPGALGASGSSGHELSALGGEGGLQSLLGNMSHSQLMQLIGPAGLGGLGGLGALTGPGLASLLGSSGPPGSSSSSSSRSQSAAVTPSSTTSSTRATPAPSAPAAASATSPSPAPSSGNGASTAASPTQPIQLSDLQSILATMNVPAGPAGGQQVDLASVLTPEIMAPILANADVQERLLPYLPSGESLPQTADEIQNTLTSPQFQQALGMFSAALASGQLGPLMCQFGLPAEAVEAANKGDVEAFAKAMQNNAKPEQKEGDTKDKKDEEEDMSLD
UniProt Q9UNA0: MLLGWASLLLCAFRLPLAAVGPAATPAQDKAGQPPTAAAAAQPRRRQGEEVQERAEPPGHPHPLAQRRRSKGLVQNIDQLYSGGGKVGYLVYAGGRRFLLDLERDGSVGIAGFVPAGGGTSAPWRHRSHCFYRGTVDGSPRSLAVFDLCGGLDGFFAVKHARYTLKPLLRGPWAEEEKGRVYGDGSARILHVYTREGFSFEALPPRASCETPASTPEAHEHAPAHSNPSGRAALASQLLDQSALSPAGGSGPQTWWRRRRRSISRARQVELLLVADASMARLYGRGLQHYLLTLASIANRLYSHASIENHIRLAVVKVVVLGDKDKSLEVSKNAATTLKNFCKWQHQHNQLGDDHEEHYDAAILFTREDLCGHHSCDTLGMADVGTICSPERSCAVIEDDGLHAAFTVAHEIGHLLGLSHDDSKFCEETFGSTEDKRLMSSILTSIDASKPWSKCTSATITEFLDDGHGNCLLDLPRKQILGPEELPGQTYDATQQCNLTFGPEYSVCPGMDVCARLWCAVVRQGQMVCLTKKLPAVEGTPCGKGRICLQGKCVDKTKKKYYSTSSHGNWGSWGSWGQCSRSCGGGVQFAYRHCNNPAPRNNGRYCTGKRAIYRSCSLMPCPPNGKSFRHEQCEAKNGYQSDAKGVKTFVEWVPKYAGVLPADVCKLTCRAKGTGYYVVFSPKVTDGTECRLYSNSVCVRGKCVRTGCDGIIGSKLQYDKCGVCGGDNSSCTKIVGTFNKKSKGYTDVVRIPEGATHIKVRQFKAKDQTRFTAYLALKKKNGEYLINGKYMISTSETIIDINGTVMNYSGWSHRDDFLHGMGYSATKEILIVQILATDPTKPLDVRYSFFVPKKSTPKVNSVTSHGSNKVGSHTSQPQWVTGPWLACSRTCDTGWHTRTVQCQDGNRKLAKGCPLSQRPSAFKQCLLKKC
UniProt Q13443: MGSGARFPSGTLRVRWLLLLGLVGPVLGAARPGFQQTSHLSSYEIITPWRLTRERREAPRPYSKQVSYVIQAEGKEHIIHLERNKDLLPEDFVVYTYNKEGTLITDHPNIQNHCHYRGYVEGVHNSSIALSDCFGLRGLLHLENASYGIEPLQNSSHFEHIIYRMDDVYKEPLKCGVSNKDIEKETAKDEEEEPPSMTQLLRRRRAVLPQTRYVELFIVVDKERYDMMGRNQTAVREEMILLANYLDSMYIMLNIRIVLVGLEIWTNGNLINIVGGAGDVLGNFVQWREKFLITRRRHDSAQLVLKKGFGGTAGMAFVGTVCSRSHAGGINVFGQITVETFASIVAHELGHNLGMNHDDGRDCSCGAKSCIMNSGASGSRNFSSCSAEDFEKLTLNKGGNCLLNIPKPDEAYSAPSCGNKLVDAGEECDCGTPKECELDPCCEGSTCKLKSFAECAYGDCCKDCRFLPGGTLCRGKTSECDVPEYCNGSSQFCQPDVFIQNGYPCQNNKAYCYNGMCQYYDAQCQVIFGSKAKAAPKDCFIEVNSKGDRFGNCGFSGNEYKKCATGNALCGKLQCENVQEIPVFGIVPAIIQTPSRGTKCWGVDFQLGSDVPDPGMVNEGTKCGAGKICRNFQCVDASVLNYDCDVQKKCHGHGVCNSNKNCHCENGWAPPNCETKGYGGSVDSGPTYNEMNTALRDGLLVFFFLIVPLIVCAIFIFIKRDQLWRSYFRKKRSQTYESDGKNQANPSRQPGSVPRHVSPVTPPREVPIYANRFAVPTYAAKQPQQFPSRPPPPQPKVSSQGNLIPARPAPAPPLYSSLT
UniProt Q12904: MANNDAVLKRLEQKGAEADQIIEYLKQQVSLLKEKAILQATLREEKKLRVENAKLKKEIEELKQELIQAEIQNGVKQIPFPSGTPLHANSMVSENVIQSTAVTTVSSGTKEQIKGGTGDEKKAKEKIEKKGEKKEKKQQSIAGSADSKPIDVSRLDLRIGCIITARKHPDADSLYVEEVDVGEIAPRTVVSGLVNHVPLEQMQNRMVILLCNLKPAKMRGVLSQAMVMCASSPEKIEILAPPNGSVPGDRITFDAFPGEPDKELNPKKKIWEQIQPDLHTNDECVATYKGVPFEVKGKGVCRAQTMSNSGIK
UniProt P12814, whole entry, looked up: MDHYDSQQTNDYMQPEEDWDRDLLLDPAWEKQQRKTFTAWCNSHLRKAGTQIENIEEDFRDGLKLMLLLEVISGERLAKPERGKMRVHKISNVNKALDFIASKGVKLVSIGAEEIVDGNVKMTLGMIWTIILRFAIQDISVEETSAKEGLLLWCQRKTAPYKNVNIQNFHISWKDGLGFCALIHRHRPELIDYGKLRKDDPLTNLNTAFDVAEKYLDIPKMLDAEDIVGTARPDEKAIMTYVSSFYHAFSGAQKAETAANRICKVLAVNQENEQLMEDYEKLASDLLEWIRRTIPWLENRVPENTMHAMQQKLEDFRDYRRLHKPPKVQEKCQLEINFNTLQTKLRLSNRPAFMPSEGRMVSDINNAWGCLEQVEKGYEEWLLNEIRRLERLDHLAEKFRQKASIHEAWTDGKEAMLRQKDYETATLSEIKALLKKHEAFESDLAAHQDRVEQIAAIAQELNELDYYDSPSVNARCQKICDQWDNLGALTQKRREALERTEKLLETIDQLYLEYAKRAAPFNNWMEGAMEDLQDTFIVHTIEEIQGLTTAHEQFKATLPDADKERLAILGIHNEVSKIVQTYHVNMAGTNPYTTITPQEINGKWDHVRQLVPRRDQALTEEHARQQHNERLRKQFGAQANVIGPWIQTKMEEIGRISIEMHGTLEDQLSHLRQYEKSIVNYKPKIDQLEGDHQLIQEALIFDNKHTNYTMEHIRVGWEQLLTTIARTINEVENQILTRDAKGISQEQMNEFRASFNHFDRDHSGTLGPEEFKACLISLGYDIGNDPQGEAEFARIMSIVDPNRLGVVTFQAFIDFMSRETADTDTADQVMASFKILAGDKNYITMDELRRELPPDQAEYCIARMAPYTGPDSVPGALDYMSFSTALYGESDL
UniProt Q9NX46: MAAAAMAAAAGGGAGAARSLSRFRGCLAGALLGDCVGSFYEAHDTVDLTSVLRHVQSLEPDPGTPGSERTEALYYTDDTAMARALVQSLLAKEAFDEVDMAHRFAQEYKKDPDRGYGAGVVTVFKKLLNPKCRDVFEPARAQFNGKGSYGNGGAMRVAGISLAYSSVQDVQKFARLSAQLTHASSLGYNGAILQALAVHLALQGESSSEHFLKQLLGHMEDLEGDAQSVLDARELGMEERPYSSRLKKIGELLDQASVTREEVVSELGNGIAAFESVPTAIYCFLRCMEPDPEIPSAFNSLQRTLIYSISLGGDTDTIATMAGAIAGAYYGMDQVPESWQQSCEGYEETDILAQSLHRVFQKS

Compound: C[C@H](C1=CC=C(C=C1)C(=O)NC2=C3C=CNC3=NC=C2)N
Assay: log2 fold change, soluble protein after heating vs DMSO (PISA); higher = thermal stabilisation; K562 lysate, 10 uM; active = over 0.2 and 3.5 SD of the protein, either way, in both replicates (recomputed)
How it was run: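 To prepare the extract, K562 pellets were dounce-homogenised in PBS pH 7.4 with 1 mM MgCl2, giving crude material at 1 mg/mL protein. This was treated with 10 μM compound for 30 min, then heated in aliquots for 3 min over 48°C-58°C before pooling and addition of NP-40 to 0.5% at 4°C. Centrifugation at 21,000xg for 90 min left soluble protein in the supernatant, which TMTpro 16plex LC-MS/MS quantified with equalised channel sums. Results are log-two fold changes in thermal stability compared with solvent controls, from duplicates.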

With ACP1 (UniProt P24666) as the target, how does the log2 fold change read?
Its log2 fold change is inactive: -0.061.

ACTN4 (UniProt K7EJH8) was tested. Which log2 fold change did it give?
The log2 fold change was inactive: -0.061.

With ACSL3 (UniProt O95573) as the target, how does the log2 fold change read?
The log2 fold change was inactive: -0.049.

For AIDA (UniProt Q96BJ3), which log2 fold change is on record?
The log2 fold change was inactive: 0.028.

Which log2 fold change does the source give for AIMP2 (UniProt Q13155) here?
Its log2 fold change is inactive: 0.05.

AGTRAP (UniProt Q6RW13) was tested. Which log2 fold change did it give?
The log2 fold change was inactive: -0.215.

With ADPRH (UniProt P54922) as the target, how does the log2 fold change read?
Its log2 fold change is inactive: 0.078.

For ADH5 (UniProt P11766), which log2 fold change is on record?
Its log2 fold change is inactive: -0.046.

ACTA1 (UniProt P68133) was tested. Which log2 fold change did it give?
Its log2 fold change is inactive: -0.002.

AKR7A2 (UniProt O43488) was tested. Which log2 fold change did it give?
The log2 fold change was inactive: -0.008.

Which log2 fold change does the source give for AGO3 (UniProt Q9H9G7) here?
Its log2 fold change is inactive: -0.075.

How did the log2 fold change turn out when ADRM1 (UniProt Q16186) was run?
Its log2 fold change is inactive: 0.019.

AHSA1 (UniProt O95433) was tested. Which log2 fold change did it give?
Its log2 fold change is inactive: 0.008.

ADAMTS5 (UniProt Q9UNA0) was tested. Which log2 fold change did it give?
Its log2 fold change is active: -0.843.

For AHCY (UniProt P23526), which log2 fold change is on record?
Its log2 fold change is inactive: -0.037.

With ACTR2 (UniProt P61160) as the target, how does the log2 fold change read?
Its log2 fold change is inactive: 0.008.

For ADAM9 (UniProt Q13443), which log2 fold change is on record?
The log2 fold change was inactive: -0.044.

With AIMP1 isoform 2 (UniProt Q12904) as the target, how does the log2 fold change read?
The log2 fold change was inactive: 0.023.

Which log2 fold change does the source give for ACTB, A0A2R8Y793 here?
Its log2 fold change is inactive: 0.009.

Which log2 fold change does the source give for ACTN1 isoform 3 (UniProt P12814) here?
The log2 fold change was inactive: 0.026.

How did the log2 fold change turn out when AGTPBP1 (UniProt Q9UPW5) was run?
The log2 fold change was inactive: 0.018.

ADAT2 (UniProt Q7Z6V5) was tested. Which log2 fold change did it give?
Its log2 fold change is inactive: -0.036.

ADPRHL2 (UniProt Q9NX46) was tested. Which log2 fold change did it give?
The log2 fold change was inactive: -0.026.
